From paper PMC8745574
These are yes or no findings as the source states them, for the method shown. Binding seen in cells or lysates may run through a third protein. Some results given as binding are weak or reduced against the parent protein; the word gives no strength. Tags and fused reporters may be left off the sequences shown.

Tests used:
[1] = biological target: T1, cYFP-RID (N. benthamiana) (Arabidopsis thaliana) (UniProt Q9SPU7); test: split reporter; BiFC, nYFP/cYFP constructs (pE-SPYNE-GW, pE-SPYCE-GW, pC-SPYNE-GW) transiently expressed in N. benthamiana leaves, confocal microscopy after 3 days
T1 sequence: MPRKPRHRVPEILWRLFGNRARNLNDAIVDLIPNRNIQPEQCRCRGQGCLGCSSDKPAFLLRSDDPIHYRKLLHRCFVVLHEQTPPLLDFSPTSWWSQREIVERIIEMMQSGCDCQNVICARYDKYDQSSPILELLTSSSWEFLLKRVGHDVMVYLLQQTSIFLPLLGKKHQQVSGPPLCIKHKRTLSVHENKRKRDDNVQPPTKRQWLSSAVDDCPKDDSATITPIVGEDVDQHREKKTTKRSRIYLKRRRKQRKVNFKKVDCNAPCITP

[2] = biological target: T2, cYFP-POT1a (N. benthamiana) (Arabidopsis thaliana) (UniProt Q56Y52); test: as above
T2 sequence: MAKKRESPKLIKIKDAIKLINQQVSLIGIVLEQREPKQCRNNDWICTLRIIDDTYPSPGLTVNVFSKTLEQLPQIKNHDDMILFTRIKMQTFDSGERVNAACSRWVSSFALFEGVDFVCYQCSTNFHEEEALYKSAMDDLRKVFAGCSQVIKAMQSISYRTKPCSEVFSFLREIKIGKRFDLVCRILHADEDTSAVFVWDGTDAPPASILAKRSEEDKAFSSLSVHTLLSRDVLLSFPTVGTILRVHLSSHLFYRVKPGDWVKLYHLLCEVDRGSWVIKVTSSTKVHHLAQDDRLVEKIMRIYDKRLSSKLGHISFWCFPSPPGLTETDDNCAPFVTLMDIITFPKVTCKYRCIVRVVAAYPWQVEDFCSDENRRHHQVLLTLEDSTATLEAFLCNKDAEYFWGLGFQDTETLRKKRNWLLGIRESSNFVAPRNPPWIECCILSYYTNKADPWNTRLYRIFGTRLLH

B1: AT3G59020 BiFC construct (protein, UniProt F4J738 1-1030)
chain: MDLPSLALIVGAAAFSPNPDERRAAEQSLNQLQHTPQHLIRILQIIVDGGSDLSVRQSASIHFKNFIAKHWEPHSGDQNIILPSDKNVVRNQILVFVSQVPPILRVQMGECLKTIIYADYPEQWPELLDWVKQNLQKPQVYGALFVLRILSSKYEFKSDEDRAPIHRVVEETFPHLLNIFNNLVHVENPSLEVADHIKLICKIFWSCIYLELPRPLFDPNFFNAWMGLFLNILERPVPVEGQPEDPELRKSWGWWKAKKWIAHILNRLYTRFGDLKLQNPDNKAFAQMFQINYAAKILECHLKLLNAIRIGGYLPDRVINLILQYLSNSISKSSMYNLLQPHLNTLLFEIVFPLMCFNDNDQMLWDEDPHEYVRKGYDIIEDLYSPRTASMDFVTELVRKRGKENFPKFIQFVVDIFKRYNEASLENKPYRLKDGALLAVGTLCDKLRQTEPYKSELENMLVQHVFPEFSSPAGHLRAKAAWVAGQYANIDFSDQSNFSKALHCVISGMCDLELPVRVDSVFALRSFIEACKDLDEIRPVLPQLLDEFFKLMKEVENEDLAFTLETIVYKFGEEISPYALGLCQNLASAFWRCIDTDNGDDETDDAGALAAVGCLRAISTILESISSLPHLYGQIEPQLLPIMRKMLTTDGQDVFEEVLEIVSYITTFSPTISLEMWSLWPLMMEALVDWAIDFFPNILVPLHNYISRGTGHYLTCKEPDYQQNLWNVISVLMANKNIDDSDLEPAPKLLGIVLQTCKGQVDQWVEPYLRITLDRLRGAEKSSFKCLLVEVVANAFYYNTPLALGILQRFGIATEIFTLWFQMLQEKKKSGARSNFKREHDKKVCILGLTSLFSLPAGQLPGEVLPHVFRALLELLVAYKDQLAEAAKAEEEEEDEDGDDDDMDEFQTDDEDEDGDDENPDETDGSTLRKLAAQAKDFRSYSDDDDFSDDDFSDDEELESPIDEVDPFVLFMDAVTAMQVSDSPRFQSLTQTLDPHYHGLASTIAQHTELRRAEILKEKLEKQSSATVAS
With B1 the binding [1] was “binds”.

B2: RAD23-4 BiFC construct (protein, UniProt Q84L30 1-378)
chain: MKIFVKTLSGSNFEIEVKPADKVSDVKTAIETVKGAEYPAAKQMLIHQGKVLKDETTLEENNVVENSFIVIMLSKTKASPSGASTASAPAPSATQPQTVATPQVSAPTASVPVPTSGTATAAAPATAASVQTDVYGQAASNLVAGTTLESTVQQILDMGGGSWDRDTVVRALRAAFNNPERAVEYLYSGIPAQAEIPPVAQAPATGEQAANPLAQPQQAAAPAAATGGPNANPLNLFPQGMPAADAGAGAGNLDFLRNSQQFQALRAMVQANPQILQPMLQELGKQNPQLVRLIQEHQADFLRLINEPVEGEENVMEQLEAAMPQAVTVTPEEREAIERLEGMGFDRAMVLEVFFACNKNEELAANYLLDHMHEFEDQ
With B2 the binding [2] was “binds”.

B3: nYFP-RPA3 (protein, UniProt Q6NLG7 1-106)
chain: MDTSSPAAFVNGALLRRYIGQKVRAVIQVIRSDVGSVIGKSTDDQQIVVKGSPQPPLTTYLEVIGIAETDNTIRAEVWTNFGDSFDVQNYNELCKLANGEFRHLFI
In the case of B3, the binding [2] is reported as “no binding”.

B4: p23-like chaperone AT4G02450, BiFC construct (protein, UniProt Q8L7U4 1-241)
chain: MSRHPEVKWAETTEKIFLTVVLADTKDTKVNLDPEGVFDFSAKVGPENHVYELKLELADKVNVEESKINIGERSIFCIIEKAEPERWNKLLRVKKPPHYVKVDWDKWVDEDDEGSAGAADMDMAGMEGMGGMGGMGGMGGMGGMGGMGGMGGMEGMDFSKLMGGMGGMGGMGGLEGLGGMGGMGGMGGMGGMGGMEEFEDSDDEEETAKSGDKKDDAVKEEGLATEKAPAAEETTSVKEDK
In the case of B4, the binding [2] is reported as “no binding”.
